# Reference: publication PMC8047154
# Sequences of proteins named here, by UniProt entry; tags and fusion partners are left off. Residues count along the entry.
# UniProt P19491, residues 22-883: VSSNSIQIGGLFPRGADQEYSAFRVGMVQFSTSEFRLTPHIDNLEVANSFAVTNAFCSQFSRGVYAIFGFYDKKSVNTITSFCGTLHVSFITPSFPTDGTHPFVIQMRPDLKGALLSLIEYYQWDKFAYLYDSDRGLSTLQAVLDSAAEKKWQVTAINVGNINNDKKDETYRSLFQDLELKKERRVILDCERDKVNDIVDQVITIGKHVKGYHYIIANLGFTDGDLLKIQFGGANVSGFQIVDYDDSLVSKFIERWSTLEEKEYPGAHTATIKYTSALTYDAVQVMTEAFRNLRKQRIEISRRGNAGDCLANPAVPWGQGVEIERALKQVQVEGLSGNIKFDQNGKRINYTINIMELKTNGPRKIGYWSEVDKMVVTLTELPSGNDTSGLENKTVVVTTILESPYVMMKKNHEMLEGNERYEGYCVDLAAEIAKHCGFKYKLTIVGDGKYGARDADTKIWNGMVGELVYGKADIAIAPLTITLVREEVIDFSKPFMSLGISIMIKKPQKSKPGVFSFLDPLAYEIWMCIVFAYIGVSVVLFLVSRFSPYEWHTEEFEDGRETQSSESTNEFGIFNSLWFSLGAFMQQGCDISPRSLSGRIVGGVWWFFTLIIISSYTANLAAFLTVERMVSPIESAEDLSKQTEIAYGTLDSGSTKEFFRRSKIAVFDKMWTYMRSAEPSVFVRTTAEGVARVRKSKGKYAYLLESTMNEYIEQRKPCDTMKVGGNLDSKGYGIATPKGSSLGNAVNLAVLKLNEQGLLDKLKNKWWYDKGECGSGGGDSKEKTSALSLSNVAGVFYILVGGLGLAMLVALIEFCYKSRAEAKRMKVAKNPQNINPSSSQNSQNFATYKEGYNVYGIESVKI
# UniProt P19492, residues 23-888: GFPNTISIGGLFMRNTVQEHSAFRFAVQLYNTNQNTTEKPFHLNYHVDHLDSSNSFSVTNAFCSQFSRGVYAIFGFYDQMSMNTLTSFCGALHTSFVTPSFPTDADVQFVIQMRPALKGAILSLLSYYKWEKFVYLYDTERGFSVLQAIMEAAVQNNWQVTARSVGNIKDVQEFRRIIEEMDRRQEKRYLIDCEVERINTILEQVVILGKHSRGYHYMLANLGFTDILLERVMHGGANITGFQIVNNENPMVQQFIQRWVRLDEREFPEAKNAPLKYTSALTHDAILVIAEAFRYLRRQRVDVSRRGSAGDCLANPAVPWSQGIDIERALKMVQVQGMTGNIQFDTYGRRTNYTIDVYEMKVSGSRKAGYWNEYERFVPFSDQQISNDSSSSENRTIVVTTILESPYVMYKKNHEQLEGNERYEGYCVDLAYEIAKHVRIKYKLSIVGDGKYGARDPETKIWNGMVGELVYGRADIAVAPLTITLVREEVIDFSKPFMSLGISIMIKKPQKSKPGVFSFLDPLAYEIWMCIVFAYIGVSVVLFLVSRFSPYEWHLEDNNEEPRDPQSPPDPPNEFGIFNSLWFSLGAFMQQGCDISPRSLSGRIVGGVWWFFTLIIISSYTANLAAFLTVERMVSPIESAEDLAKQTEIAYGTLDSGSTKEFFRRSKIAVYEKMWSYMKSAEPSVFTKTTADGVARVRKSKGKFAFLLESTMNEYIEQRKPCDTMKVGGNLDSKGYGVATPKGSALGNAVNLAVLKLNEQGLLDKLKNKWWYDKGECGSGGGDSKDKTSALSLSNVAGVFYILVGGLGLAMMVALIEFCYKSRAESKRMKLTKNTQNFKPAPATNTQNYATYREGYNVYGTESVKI
# These are yes or no findings as the source states them, for the method shown. In cells and extracts the contact can be indirect. Some results given as binding are weak or reduced against the parent protein; the word gives no strength.
# Target: AMPA receptor subunit GluA2 (rat (endogenous in primary hippocampal neurons)) (UniProt P19491)
# Assay: proximity ligation; fixed primary rat hippocampal neurons, control or sAPPα (1 nM; 30 min or 2 h); two N-terminal antibodies without permeabilisation; cell-surface GluA2/3
substance,measurement,value
AMPA receptor subunit GluA3 (from UniProt P19492 23-888),binding,binds
